About 3,700 (1.2%) of roughly 300,000 compounds were called active. This list was built around the results that the source calls inconclusive (neither active nor inactive); the mix of calls is not that of the screen. The call rests on the fitted dose curve; tested in HEK293 cells. Potencies of inconclusive entries are doubtful fits and often do not repeat.
Experiment: qHTS for Inhibitors of binding or entry into cells for Lassa Virus; further: nearly all actives have a fitted effect of over 50% in size
Details: Lassa virus pseudotype entry inhibition, cell reporter; activity change, negative = inhibition: at 37.9 µM (top of the series) unless noted
On the % scale 0 is the no-effect control and ±100 the full control effect; potency means the concentration at half of the fitted maximal effect.

Structure (SMILES)	Potency	activity change, negative = inhibition
O=C(/C=C\c1cccs1)c1c(O)ccc2ccc(=O)oc12	inconclusive: 12.6 µM [inhibitor, partial curve, poor fit]	
CN(Cc1ccccc1)C(=O)CCC(=O)N(C)Cc1ccccc1		inactive: 6.29%
O=C(O)c1cccc(N/N=C/c2cccs2)c1	active: 5.8 µM	
Cc1ccc(-c2nn3c(C)nnc3s2)cc1NC(=O)c1ccc(-c2cccc(Cl)c2)o1	inconclusive: 23.1 µM [inhibitor, single point]	
COc1cccc(/C(O)=C/c2nc3ccc(C(=O)NCCc4ccc(Cl)cc4)cc3[nH]c2=O)c1	inconclusive: 14.1 µM [inhibitor, single point]	
CC(=O)n1cc(N(C(=O)CCl)c2ccccc2)c2ccccc21	inconclusive: 15.8 µM [inhibitor, partial curve, poor fit]	
COc1ccccc1N1CCN(C(=O)c2ccc(Cl)c(S(=O)(=O)NCc3ccco3)c2)CC1	inconclusive: 5.01 µM [inhibitor, full curve, poor fit]	
N#CC1=C2SCN(Cc3ccco3)CN2C(=O)CC1c1cccc2ccccc12 (stereo unspecified)		inactive: 1.62%
Cc1ccc(-n2nc3c(N4CCC(C(=O)NCc5ccccc5Cl)CC4)nnc(C)c3c2C)cc1		inactive: -14.9% [at 46.1 µM]
O=C(Nc1nnc(SCC(=O)N2CCCC2)s1)C1CC(=O)N(c2ccc(F)cc2)C1 (stereo unspecified)	inconclusive: 35.5 µM [activator, single point]	
CNC(=S)N/N=C(\C)c1ccc(Cl)c(Cl)c1	inconclusive: 7.08 µM [inhibitor, single point]	
C/C(=N/NC(=O)c1ccc(C)nc1)c1ccc2c(c1)CCCC2	inconclusive: 22.4 µM [inhibitor, single point]	
COc1ccc(C2=NNC(c3cccnc3)=Nc3ccccc32)cc1	inconclusive: 35.5 µM [inhibitor, single point]	
COc1ccc(C(=O)NNC(=O)C(=O)Nc2cccc3ccccc23)cc1	inconclusive: 3.55 µM [inhibitor, partial curve, poor fit]	
O=C(Nc1ccc2c(c1)OCCO2)C1CCCN1C(=O)Nc1ccc(F)cc1 (stereo unspecified)		inactive: -4.76% [at 46.1 µM]
Cc1c(C(c2ccccc2Cl)c2c(O)c3ccccc3oc2=O)c(=O)n(-c2ccccc2)n1C (stereo unspecified)	inconclusive: 0.447 µM [inhibitor, single point]	
O=C(NC1CCCCC1)c1cc(-c2ccccn2)nc2ccccc12	inconclusive: 35.5 µM [inhibitor, single point]	
Cc1cccc(CSCC(=O)NCc2ccc(S(N)(=O)=O)cc2)c1	inconclusive: 0.0891 µM [inhibitor, full curve, poor fit]	
O=C(Nc1ccccc1F)c1cc(S(=O)(=O)N2CCCCC2)cs1	active: 20.6 µM	
O=C(c1ccc2c(c1)OCO2)N1CCN(c2ncccn2)CC1	inconclusive: 3.16 µM [inhibitor, single point]	
Cc1ccc(/C=C(\C#N)c2nn(-c3ccccc3)c(N)c2C#N)cc1	inconclusive: 1.84 µM [inhibitor, partial curve, poor fit]	
CC(C)c1ccc2c(c1)C(c1ccc(N3CCOCC3)cc1)=NNC(c1cccs1)=N2		inactive: 19.4%

Structure (SMILES)	Potency	activity change, negative = inhibition
Cc1cccc(N2CCN(C(=O)c3cc(C)oc3C)CC2C)c1 (stereo unspecified)	inconclusive: 9.2 µM [inhibitor, partial curve, poor fit]	
O=C(Nc1ccc(Cl)cc1)Nc1ccccc1C(=O)O	inconclusive: 6.31 µM [inhibitor, full curve, poor fit]	
Oc1ccccc1C(Nc1nccs1)c1ccc2cccnc2c1O (stereo unspecified)	active: 7.3 µM	
COc1ccc(NC(=O)CSc2nc(N)c3cc4c(nc3n2)CCCC4)cc1	inconclusive: 22.4 µM [inhibitor, single point]	
Cc1ccc(N(C)C(=O)c2cc(S(=O)(=O)N3CCOCC3)cn2C)cc1		inactive: -0.602% [at 46.1 µM]
CCCc1ccc2oc(C(=O)N3CCN(c4cnccn4)CC3)c(C)c2c1		inactive: -19.7% [at 46.1 µM]
CCNC(=S)/N=C(/Nc1ccc(OC)cc1)Nc1nc(C)cc(C)n1	inconclusive: 8.91 µM [inhibitor, partial curve, poor fit]	
CCCN(CC(=O)Nc1ccccc1C)C(=O)c1cccc(S(=O)(=O)N2CCN(c3ccccc3)CC2)c1	inconclusive: 35.5 µM [inhibitor, single point]	
COc1ccc(-c2cc(C(=O)N3CCCC3)no2)cc1	inconclusive: 6.31 µM [inhibitor, full curve, poor fit]	
Cc1cccc(N2CCN(C(=O)CC(NC(=O)c3ccccc3)c3ccccc3)CC2C)c1 (stereo unspecified)	inconclusive: 28.2 µM [inhibitor, single point]	
CCN(CC)c1cc(Oc2ccccc2)ncn1		inactive: 2.26%
CC[n+]1c(/C=C2/C=C(C)CC(C)C2)sc2ccccc21 (stereo unspecified)	inconclusive: 5.17 µM [inhibitor, full curve, poor fit]	
CN(CCOc1ccc(-c2ccn(S(=O)(=O)c3ccc(Cl)cc3)n2)cc1)c1ccccn1	inconclusive: 11.6 µM [inhibitor, partial curve, poor fit]	
Cc1ccc(-n2ncc3c(=O)n(Cc4ccccn4)cnc32)cc1C	inconclusive: 32.6 µM [inhibitor, single point]	
CCOC(=O)c1c(C)[nH]c(C(=O)NCc2ccccn2)c1C	inconclusive: 1.26 µM [activator, full curve, poor fit]	
O=C(O)C(CCCCN1C(=O)c2ccccc2C1=O)N1C(=O)c2ccccc2C1=O (stereo unspecified)		inactive: -4.17%
COc1ccc(OC)c(S(=O)(=O)N2CCC(C(=O)Nc3cccc(C)c3)CC2)c1		inactive: 3.39%
CC(C)c1ccccc1NC(=O)Nc1ccc(F)cc1F	inconclusive: 6.31 µM [inhibitor, partial curve, poor fit]	
Cc1cc(C)nc(NC(N)=NCCc2c[nH]c3ccccc23)n1		inactive: -16.6% [at 46.1 µM]
Cc1cc(NC(=O)/C=C/c2ccccc2Cl)n(-c2nc3ccccc3[nH]2)n1	inconclusive: 35.5 µM [inhibitor, partial curve, poor fit]	
COc1ccc(Nc2oc(/C=C/c3cccc(OC)c3)nc2C#N)cc1	inconclusive: 7.08 µM [activator, partial curve, poor fit]	
CC(/C=C\c1cccnc1)=C/C(=O)O	inconclusive: 14.1 µM [activator, partial curve, poor fit]	

Some values from the list:
Under Potency, `O=C(Nc1nnc(SCC(=O)N2CCCC2)s1)C1CC(=O)N(c2ccc(F)cc2)C1` (stereo unspecified) has the entry inconclusive: 35.5 µM [activator, single point]
Under Potency, `COc1ccc(C(=O)NNC(=O)C(=O)Nc2cccc3ccccc23)cc1` has the entry inconclusive: 3.55 µM [inhibitor, partial curve, poor fit]
Under Potency, `CCNC(=S)/N=C(/Nc1ccc(OC)cc1)Nc1nc(C)cc(C)n1` has the entry inconclusive: 8.91 µM [inhibitor, partial curve, poor fit]
Under activity change, negative = inhibition, `CN(Cc1ccccc1)C(=O)CCC(=O)N(C)Cc1ccccc1` has the entry inactive: 6.29%
Under Potency, `O=C(NC1CCCCC1)c1cc(-c2ccccn2)nc2ccccc12` has the entry inconclusive: 35.5 µM [inhibitor, single point]

(cont.)

Structure (SMILES)	Potency	activity change, negative = inhibition
COc1ccc(N(C(=O)/C=C\C(=O)Nc2ccc(C)cc2)C(C(=O)NCc2ccco2)c2ccc(C)cc2)cc1 (stereo unspecified)	inconclusive: 8.91 µM [inhibitor, partial curve, poor fit]	
Cc1cc(NC(=O)c2cc([N+](=O)[O-])ccc2Cl)no1		inactive: -25.4%
O=S(=O)(c1ccc(SCCO)nc1)N1CCCC1	inconclusive: 0.103 µM [activator, full curve]	
COc1cc(C2c3c(-c4ccccc4O)n[nH]c3C(=O)N2Cc2ccco2)ccc1OCC(C)C (stereo unspecified)	inconclusive: 1 µM [inhibitor, full curve, poor fit]	
CCOC(=O)N1CCN(S(=O)(=O)c2ccc(C(=O)NNc3nc4ccc(Cl)cc4s3)cc2)CC1	inconclusive: 29.1 µM [inhibitor, single point]	
O=C(N/N=C/c1cccnc1)c1ccc(CN2c3cccc4cccc(c34)S2(=O)=O)cc1		inactive: -13% [at 46.1 µM]
CC(C)(C)c1csc(NC(=O)Nc2ccccc2)n1	inconclusive: 31.6 µM [inhibitor, single point]	
CC(C)C(C)NC(=O)CN1C(=O)NC2(CCc3ccccc32)C1=O (stereo unspecified)	inconclusive: 14.1 µM [activator, partial curve, poor fit]	
C=CCn1c(C)cc(C(=O)CN2C(=O)NC3(CCCc4ccccc43)C2=O)c1C (stereo unspecified)	inconclusive: 1.26 µM [activator, single point]	
Cc1ccc(C2=Nc3ccccc3N=C(C(Cl)Cl)C2)cc1	inconclusive: 7.08 µM [inhibitor, partial curve, poor fit]	
CCOc1ccc2nc(NC(=O)CCC(=O)c3cccs3)sc2c1	inconclusive: 1.12 µM [activator, single point]	
COc1cc(C(=O)NC(c2ccc(Cl)cc2)c2cc(Cl)c3cccnc3c2O)cc(OC)c1OC (stereo unspecified)	inconclusive: 7.08 µM [inhibitor, partial curve, poor fit]	
CN(C)CCNc1oc(COc2ccc(Cl)cc2Cl)nc1C#N		inactive: 9.55%
CC1CCC(NC(=O)c2cc3c(s2)CCCC3)CC1 (stereo unspecified)	inconclusive: 8.91 µM [inhibitor, partial curve]	
CN(CCCNC(=O)c1cccn2c(=O)c3ccccc3nc12)Cc1ccccc1		inactive: -5.57%
c1ccc(C2(c3ccccc3)OCC(Cn3cncn3)O2)cc1 (stereo unspecified)	inconclusive: 31.6 µM [inhibitor, single point]	
C=CCn1c(=O)/c(=C/c2ccc(C)o2)s/c1=C(/C#N)C(=O)c1ccccc1	inconclusive: 8.2 µM [inhibitor, partial curve, poor fit]	
O=C(NCCc1ccccc1)c1noc2c1CCCCC2	inconclusive: 11.6 µM [inhibitor, partial curve, poor fit]	
CCC(C)OC(=O)c1c(N)n(Cc2cccs2)c2nc3ccccc3nc12 (stereo unspecified)		inactive: -7.6%
COc1ccc(OCCCC(=O)N2CCN(S(=O)(=O)c3cccc(F)c3)CC2)cc1	inconclusive: 35.5 µM [inhibitor, single point]	
O=C(CO/N=C/c1ccccc1OC(F)F)NCc1cccs1	inconclusive: 29.1 µM [inhibitor, single point]	
Cc1cc(C(=O)N(C)CC(=O)Nc2cccc(F)c2)no1		inactive: 4.72%

Reference: PubChem BioAssay AID540256 (National Center for Advancing Translational Sciences (NCATS), 2011)
